## Percent effect of library compounds

Amino acid sequences for entries named in this document (tags omitted).
UniProt P9WNZ1, whole entry: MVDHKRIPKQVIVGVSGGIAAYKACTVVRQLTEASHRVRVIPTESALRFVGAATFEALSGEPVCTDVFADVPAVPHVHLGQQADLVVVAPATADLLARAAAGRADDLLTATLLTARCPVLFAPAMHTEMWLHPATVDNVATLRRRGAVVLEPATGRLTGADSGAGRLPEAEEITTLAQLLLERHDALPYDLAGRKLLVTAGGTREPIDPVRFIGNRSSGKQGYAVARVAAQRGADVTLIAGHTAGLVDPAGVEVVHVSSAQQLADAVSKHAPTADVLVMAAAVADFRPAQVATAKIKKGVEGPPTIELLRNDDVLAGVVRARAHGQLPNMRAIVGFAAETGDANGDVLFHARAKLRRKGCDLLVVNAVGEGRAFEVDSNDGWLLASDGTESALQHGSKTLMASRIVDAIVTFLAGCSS
UniProt P9WFT3, whole entry: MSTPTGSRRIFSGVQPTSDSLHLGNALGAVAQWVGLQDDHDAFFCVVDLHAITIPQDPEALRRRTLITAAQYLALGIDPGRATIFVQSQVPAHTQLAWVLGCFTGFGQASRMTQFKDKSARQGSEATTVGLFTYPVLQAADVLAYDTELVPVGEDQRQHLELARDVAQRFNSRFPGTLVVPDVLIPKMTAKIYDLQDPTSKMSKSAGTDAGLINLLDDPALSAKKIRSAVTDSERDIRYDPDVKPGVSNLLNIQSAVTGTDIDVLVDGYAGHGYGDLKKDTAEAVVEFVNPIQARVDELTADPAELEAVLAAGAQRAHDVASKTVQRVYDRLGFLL

A: 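Enzyme assay of CoaBC with a phosphate dye (Biomol Green) read at 650 nm. Target: Coenzyme A biosynthesis protein CoaBC, Mycobacterium tuberculosis (UniProt P9WNZ1). Compounds at 30 µM. Higher reads as stronger inhibition, judged from the few compounds that gave an IC50. Most strong results did not repeat in a second test. Of about 67,000 compounds tested this way, about 40 (0.06%) reached 50% or more in at least one test.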
B: 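Tryptophan-tRNA ligase, Mycobacterium tuberculosis (UniProt P9WFT3). Enzyme assay of tryptophanyl-tRNA synthetase; the read-out is not stated. Tested at 10 µM. Direction is not recorded; retested compounds ran higher, which suggests that high means inhibition. About 65,000 compounds were tested under these conditions; 0.098% (about 64) showed 50% or more at least once.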

Values are the deposited “Percent Effect”, in %.
How 0% and 100% were set is not recorded. Most values in the screen are low, and negative values occur.
This is an unselected part of the compounds tested.

CC(C)(O)c1cn(C2CCN(C(=O)CCC3CCCC3)CC2)nn1 gave A: -1.615%; B: -3.763%.
O=C(c1ccoc1)N1CCC2(CCC(=O)N2Cc2ccncc2)CC1 gave A: 11.21%; B: 3.171%.
c1cncc(CCc2nc(C3CC3)nn2-c2ccc3c(c2)OCCO3)c1 gave A: 3.846%; B: -4.68%.
O=C1Nc2ccccc2C12CCCN(Cc1ccc3c(c1)OCCO3)C2 (centres unmarked) gave A: 3.106%; B: 1.158%.
O=C(Cc1cn2ccsc2n1)N1CCCC(n2cccn2)C1 (centres unmarked) gave A: 4.474%; B: -5.348%.
COC1CN(CCO)S(=O)(=O)c2ccccc21 (centres unmarked) gave A: 0.2421%.
CC(C)COC(=O)N1CC(=O)N(Cc2ccco2)CC(O)C1 (centres unmarked) gave A: -0.7264%.
CCC(C)C(=O)NS(=O)(=O)c1ccc(C#N)cc1C(F)(F)F (centres unmarked) gave A: -0.4386%; B: -4.856%.
Fc1ccc(OCCNC2CCN(Cc3ccccn3)CC2)c(F)c1 gave A: 0.9185%; B: 18.87%.
Cc1cc(C)nc(N2C[C@H]3OC(=O)N(CCc4cccc(Cl)c4)[C@H]3C2)n1 gave A: 5.656%; B: 8.327%.
Cc1ccc(C)c(NC(=O)c2n[nH]c(-n3cnnc3)n2)c1 gave A: 3.634%; B: -2.01%.
O=C(CCc1cc2n(n1)CCCNC2)N1CCN(C2CCCC2)C(=O)C1 gave A: 2.664%; B: -6.498%.
CCN1CCN(c2nsc(-c3cccnc3)c2C#N)CC1 gave A: -0.2336%; B: -0.9855%.
CC(C)CS(=O)(=O)N1CCC2(CC1)CCn1c(-c3cnn(C)c3)cnc12 gave A: 2.657%; B: -4.545%.
O=C([C@H]1COC[C@H]2CN(C3CCOCC3)C[C@H]21)N1CCCO1 gave A: 1.29%; B: 0.09295%.
CCN1CCOC(CNc2nccc(C(F)(F)F)n2)C1 (centres unmarked) gave A: 5.934%; B: -2.717%.
COc1ncnc(N)c1CNCCOc1ccccc1Cl gave B: -1.238%.
CN(C)C(=O)N1CCN(Cc2cnc(-c3ccsc3)s2)CC1 gave A: -3.213%; B: -3.913%.
Cc1ccc2ncnc(N3CCOCC3c3c(C)nn(C)c3C)c2c1 (centres unmarked) gave A: -1.339%; B: -5.151%.
CCNC(=O)C1CCN(Cn2nc(-c3ccc(F)cc3)oc2=O)CC1 gave A: 6.065%; B: 0.2921%.
Cc1c(C(=O)N2CCC(N3CCCCC3)CC2)n(C)c2ccc(Cl)cc12 gave A: 7.444%; B: -0.5711%.
CS(=O)(=O)NC1CCN(C(=O)NCc2cccnc2)CC1 gave A: 0.2611%; B: -7.147%.
CNC(=O)C(NC(=O)CCc1cccc(OC2CCCC2)c1)C(C)C (centres unmarked) gave A: 3.586%; B: -1.815%.
COCCN(CCC#N)Cn1cc(Cl)cn1 gave A: 3.972%; B: -1.905%.

Repeated from the top, 2 entries:

compound	A	B
CC(C)(O)c1cn(C2CCN(C(=O)CCC3CCCC3)CC2)nn1	-1.615%	-3.763%
O=C(c1ccoc1)N1CCC2(CCC(=O)N2Cc2ccncc2)CC1	11.21%	3.171%

The values are deposited in ChEMBL (CHEMBL3988442, “University of Dundee, Small-Polar-MMV Screening Library” (2021)).